Laboratory results from patent US9879058B2, “Use of compounds that selectively modulate astrocytic release of substances through hemichannels of connexins and pannexins, without influencing gap junctions, for the treatment of psychiatric disorders” (Universidad Andres Bello, priority 2012, dated 2018).
Entries after “also recorded” stand apart in the source; their conditions may differ. Not every detail of the peptide structures is certain; ends, links or a residue may be inferred. No end group written: not given here.

System: Sprague Dowley rats
Test: Openfield test
Type: in vivo, rat
Settings: microinjected into ventral hippocampus
Protocol: A. Animals: All procedures involving animals were in accordance to NIH guidelines and with approval of the bioethical committee of the Universidad Andrés Bello. Sprague Dowley rats (˜60 d old, ˜250 g) were caged individually at 22° C., 12/12 h light/dark cycle. The rats remained in their home box throughout the study, and were removed only briefly for drug microinfusions. B. Drugs: For intra hippocampal microinjections Gap19 ([…] (SEQ ID NO: 3), LifeTein, South Plainfield, N.J., USA, >90% purity) was dissolved in PBS to yield a final solution of 100 μM and cacotheline was dissolved in sterile saline to a final concentration of 10 μM. […] Dye uptake: Gap junction permeability was determined at room temperature using the scrape-loading/dye transfer (SL/DT) technique, Hela cells were incubated with Carboxy-fluorescin (1 mg/ml) in the same Ca2+ free HEPES-buffered salt solution as above, then the test compound was added, followed byscrape-loading, which was performed with a razor blade. […]
F. Behavioral procedures: To assess the effects of TAT-Gap19 on locomotor activity, entire body movements were measured in the openfield and counted as the number of crossings (transitions) between virtual square subdivisions of 10 cm^2 measured offline from digital video recordings. […] G. Data Analysis: Data were expressed as Mean+SD. […]

## YGRKKRRQRRRKQIEIKKFK [TAT-Gap19]
  effect on anxiety: anxiogenic/activating effects
Peptides 100 μM
  locomotion (transitions) in the openfield: increased locomotion in the openfield; also recorded: increase in locomotor activity
